# Assay results from the supplement of paper PMC8728848.
# Some of the results follow.
# B1: SynCAM (Mus musculus) (protein)
# chain: MASAVLPSGSQCAAAAAVAAAAAPPGLRLRLLLLLLSAAALIPTGDGQNLFTKDVTVIEGEVATISCQVNKSDDSVIQLLNPNRQTIYFRDFRPLKDSRFQLLNFSSSELKVSLTNVSISDEGRYFCQLYTDPPQESYTTITVLVPPRNLMIDIQKDTAVEGEEIEVNCTAMASKPATTIRWFKGNKELKGKSEVEEWSDMYTVTSQLMLKVHKEDDGVPVICQVEHPAVTGNLQTQRYLEVQYKPQVHIQMTYPLQGLTREGDAFELTCEAIGKPQPVMVTWVRVDDEMPQHAVLSGPNLFINNLNKTDNGTYRCEASNIVGKAHSDYMLYVYDPPTTIPPP
# Columns and labels:
# Test in all cases: glycan array binding signal (z-score within array); higher = stronger binding
# Conditions in all cases: glycan notation: IUPAC condensed, linker removed
# Fuc(a1-2)Gal = target: Fuc(a1-2)Gal
# Outline: (§1)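 The binding signal is a Z-score computed within each array and averaged over linkers. Arrays of the same protein sequence at different concentrations or buffers were also averaged together. Data originate from 3228 arrays in the Consortium for Functional Glycomics database, kept only where the protein sequence was available.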
# Fuc(a1-2)Gal(b1-3)GalNAc = target: Fuc(a1-2)Gal(b1-3)GalNAc
# Outline: as §1
# [1] = target: Fuc(a1-2)Gal(b1-3)GalNAc(a1-3)[Fuc(a1-2)]Gal(b1-4)Glc
# Outline: as §1
# [2] = target: Fuc(a1-2)Gal(b1-3)GalNAc(a1-3)[Fuc(a1-2)]Gal(b1-4)GlcNAc
# Outline: as §1
# [3] = target: Fuc(a1-2)Gal(b1-3)GalNAc(b1-3)Gal
# Outline: as §1
# [4] = target: Fuc(a1-2)Gal(b1-3)GalNAc(b1-3)Gal(a1-4)Gal(b1-4)Glc
# Outline: as §1
# [5] = target: Fuc(a1-2)Gal(b1-3)GalNAc(b1-4)[Neu5Ac(a2-3)]Gal(b1-4)Glc
# Outline: as §1
# Fuc(a1-2)Gal(b1-3)GlcNAc = target: Fuc(a1-2)Gal(b1-3)GlcNAc
# Outline: as §1
# [6] = target: Fuc(a1-2)Gal(b1-3)GlcNAc(b1-2)Man(a1-3)[Fuc(a1-2)Gal(b1-3)GlcNAc(b1-2)Man(a1-6)]Man(b1-4)GlcNAc(b1-4)GlcNAc
# Outline: as §1
# [7] = target: Fuc(a1-2)Gal(b1-3)GlcNAc(b1-2)Man(a1-3)[Fuc(a1-2)Gal(b1-3)GlcNAc(b1-2)Man(a1-6)]Man(b1-4)GlcNAc(b1-4)[Fuc(a1-6)]GlcNAc
# Outline: as §1
# [8] = target: Fuc(a1-2)Gal(b1-3)GlcNAc(b1-3)Gal(b1-4)Glc
# Outline: as §1
# [9] = target: Fuc(a1-2)Gal(b1-3)GlcNAc(b1-3)GalNAc
# Outline: as §1
# [10] = target: Fuc(a1-2)Gal(b1-3)GlcNAc(b1-3)[Fuc(a1-2)Gal(b1-3)GlcNAc(b1-6)]GalNAc
# Outline: as §1
# [11] = target: Fuc(a1-2)Gal(b1-3)GlcNAc(b1-3)[Gal(b1-4)GlcNAc(b1-6)]Gal(b1-4)Glc
# Outline: as §1
# [12] = target: Fuc(a1-2)Gal(b1-3)GlcNAc(b1-3)[Neu5Ac(a2-6)Gal(b1-4)GlcNAc(b1-6)]Gal(b1-4)Glc
# Outline: as §1
# [13] = target: Fuc(a1-2)Gal(b1-3)GlcNAc6S
# Outline: as §1
# [14] = target: Fuc(a1-2)Gal(b1-3)[Fuc(a1-4)]GlcNAc
# Outline: as §1
# [15] = target: Fuc(a1-2)Gal(b1-3)[Fuc(a1-4)]GlcNAc(b1-2)Man(a1-3)[Fuc(a1-2)Gal(b1-3)[Fuc(a1-4)]GlcNAc(b1-2)Man(a1-3)]Man(b1-4)GlcNAc(b1-4)GlcNAc
# Outline: as §1
# [16] = target: Fuc(a1-2)Gal(b1-3)[Fuc(a1-4)]GlcNAc(b1-2)Man(a1-3)[Fuc(a1-2)Gal(b1-3)[Fuc(a1-4)]GlcNAc(b1-2)Man(a1-6)]Man(b1-4)GlcNAc(b1-4)[Fuc(a1-6)]GlcNAc(b1-4)[Fuc(a1-6)]GlcNAc
# Outline: as §1
# [17] = target: Fuc(a1-2)Gal(b1-3)[Fuc(a1-4)]GlcNAc(b1-3)[Fuc(a1-3)[Gal(b1-4)]GlcNAc(b1-6)]Gal(b1-4)Glc
# Outline: as §1
# [18] = target: Fuc(a1-2)Gal(b1-3)[Fuc(a1-4)]GlcNAc(b1-3)[Gal(b1-4)GlcNAc(b1-6)]Gal(b1-4)Glc
# Outline: as §1
# Fuc(a1-2)Gal(b1-4)Glc = target: Fuc(a1-2)Gal(b1-4)Glc
# Outline: as §1
# Fuc(a1-2)Gal(b1-4)Glc6S = target: Fuc(a1-2)Gal(b1-4)Glc6S
# Outline: as §1
# Fuc(a1-2)Gal(b1-4)GlcNAc = target: Fuc(a1-2)Gal(b1-4)GlcNAc
# Outline: as §1
# [19] = target: Fuc(a1-2)Gal(b1-4)GlcNAc(b1-2)Man
# Outline: as §1
# [20] = target: Fuc(a1-2)Gal(b1-4)GlcNAc(b1-2)Man(a1-3)[Fuc(a1-2)Gal(b1-4)GlcNAc(b1-2)Man(a1-6)]Man(b1-4)GlcNAc(b1-4)GlcNAc
# Outline: as §1
# [21] = target: Fuc(a1-2)Gal(b1-4)GlcNAc(b1-2)Man(a1-3)[Fuc(a1-2)Gal(b1-4)GlcNAc(b1-2)Man(a1-6)]Man(b1-4)GlcNAc(b1-4)[Fuc(a1-6)]GlcNAc
# Outline: as §1
# [22] = target: Fuc(a1-2)Gal(b1-4)GlcNAc(b1-2)[Fuc(a1-2)Gal(b1-4)GlcNAc(b1-4)]Man(a1-3)[Fuc(a1-2)Gal(b1-4)GlcNAc(b1-2)Man(a1-6)]Man(b1-4)GlcNAc(b1-4)GlcNAc
# Outline: as §1
# [23] = target: Fuc(a1-2)Gal(b1-4)GlcNAc(b1-3)Gal(b1-4)GlcNAc
# Outline: as §1
# [24] = target: Fuc(a1-2)Gal(b1-4)GlcNAc(b1-3)Gal(b1-4)GlcNAc(b1-2)Man(a1-3)[Fuc(a1-2)Gal(b1-4)GlcNAc(b1-3)Gal(b1-4)GlcNAc(b1-2)Man(a1-6)]Man(b1-4)GlcNAc(b1-4)GlcNAc
# Outline: as §1
# [25] = target: Fuc(a1-2)Gal(b1-4)GlcNAc(b1-3)Gal(b1-4)GlcNAc(b1-3)Gal(b1-4)GlcNAc
# Outline: as §1
# [26] = target: Fuc(a1-2)Gal(b1-4)GlcNAc(b1-3)GalNAc
# Outline: as §1
# [27] = target: Fuc(a1-2)Gal(b1-4)GlcNAc(b1-3)[Fuc(a1-2)Gal(b1-4)GlcNAc(b1-6)]GalNAc
# Outline: as §1
# [28] = target: Fuc(a1-2)Gal(b1-4)GlcNAc(b1-3)[Fuc(a1-3)[Gal(b1-4)]GlcNAc(b1-6)]Gal(b1-4)Glc
# Outline: as §1
# [29] = target: Fuc(a1-2)Gal(b1-4)GlcNAc(b1-6)GalNAc
# Outline: as §1
# [30] = target: Fuc(a1-2)Gal(b1-4)GlcNAc6S
# Outline: as §1
# [31] = target: Fuc(a1-2)Gal(b1-4)[Fuc(a1-3)]GlcNAc
# Outline: as §1
# [32] = target: Fuc(a1-2)Gal(b1-4)[Fuc(a1-3)]GlcNAc(b1-2)Man(a1-3)[Fuc(a1-2)Gal(b1-4)[Fuc(a1-3)]GlcNAc(b1-2)Man(a1-6)]Man(b1-4)GlcNAc(b1-4)[Fuc(a1-6)]GlcNAc
# Outline: as §1
# [33] = target: Fuc(a1-2)Gal(b1-4)[Fuc(a1-3)]GlcNAc(b1-2)[Fuc(a1-2)Gal(b1-4)[Fuc(a1-3)]GlcNAc(b1-4)]Man(a1-3)[Fuc(a1-2)Gal(b1-4)[Fuc(a1-3)]GlcNAc(b1-2)Man(a1-6)]Man(b1-4)GlcNAc(b1-4)GlcNAc
# Outline: as §1
# [34] = target: Fuc(a1-2)Gal(b1-4)[Fuc(a1-3)]GlcNAc(b1-3)Gal(b1-4)[Fuc(a1-3)]GlcNAc
# Outline: as §1
# [35] = target: Fuc(a1-2)Gal(b1-4)[Fuc(a1-3)]GlcNAc(b1-3)Gal(b1-4)[Fuc(a1-3)]GlcNAc(b1-3)Gal(b1-4)[Fuc(a1-3)]GlcNAc
# Outline: as §1
# [36] = target: Fuc(a1-2)Gal(b1-4)[Fuc(a1-3)]GlcNAc(b1-3)GalNAc
# Outline: as §1
# [37] = target: Fuc(a1-2)Gal(b1-4)[Fuc(a1-3)]GlcNAc(b1-3)[Neu5Ac(a2-6)Gal(b1-4)GlcNAc(b1-6)]Gal(b1-4)Glc
# Outline: as §1
# [38] = target: Fuc(a1-2)Gal3S(b1-4)GlcNAc
# Outline: as §1
# [39] = target: Fuc(a1-2)Gal6S(b1-3)GlcNAc
# Outline: as §1
binder,measurement,setting,value
B1,glycan array binding signal (z-score),Fuc(a1-2)Gal,-0.509
same,glycan array binding signal (z-score),Fuc(a1-2)Gal(b1-3)GalNAc,-0.21
same,glycan array binding signal (z-score),[1],-0.767
same,glycan array binding signal (z-score),[2],2.15
same,glycan array binding signal (z-score),[3],0.178
same,glycan array binding signal (z-score),[4],-0.683
same,glycan array binding signal (z-score),[5],-0.661
same,glycan array binding signal (z-score),Fuc(a1-2)Gal(b1-3)GlcNAc,0.326
same,glycan array binding signal (z-score),[6],-0.104
same,glycan array binding signal (z-score),[7],1.96
same,glycan array binding signal (z-score),[8],-0.729
same,glycan array binding signal (z-score),[9],0.316
same,glycan array binding signal (z-score),[10],-0.296
same,glycan array binding signal (z-score),[11],-0.622
same,glycan array binding signal (z-score),[12],0.679
same,glycan array binding signal (z-score),[13],2.22
same,glycan array binding signal (z-score),[14],0.054
same,glycan array binding signal (z-score),[15],1.84
same,glycan array binding signal (z-score),[16],-0.316
same,glycan array binding signal (z-score),[17],-0.545
same,glycan array binding signal (z-score),[18],0.218
same,glycan array binding signal (z-score),Fuc(a1-2)Gal(b1-4)Glc,-0.425
same,glycan array binding signal (z-score),Fuc(a1-2)Gal(b1-4)Glc6S,0.624
same,glycan array binding signal (z-score),Fuc(a1-2)Gal(b1-4)GlcNAc,0.404
same,glycan array binding signal (z-score),[19],-0.179
same,glycan array binding signal (z-score),[20],-0.471
same,glycan array binding signal (z-score),[21],1.14
same,glycan array binding signal (z-score),[22],1.31
same,glycan array binding signal (z-score),[23],-0.175
same,glycan array binding signal (z-score),[24],0.696
same,glycan array binding signal (z-score),[25],-0.382
same,glycan array binding signal (z-score),[26],0.291
same,glycan array binding signal (z-score),[27],-0.917
same,glycan array binding signal (z-score),[28],-0.893
same,glycan array binding signal (z-score),[29],-0.076
same,glycan array binding signal (z-score),[30],-0.055
same,glycan array binding signal (z-score),[31],0.57
same,glycan array binding signal (z-score),[32],0.425
same,glycan array binding signal (z-score),[33],0.808
same,glycan array binding signal (z-score),[34],-0.507
same,glycan array binding signal (z-score),[35],0.498
same,glycan array binding signal (z-score),[36],0.446
same,glycan array binding signal (z-score),[37],-1.52
same,glycan array binding signal (z-score),[38],-1.04
same,glycan array binding signal (z-score),[39],0.405

# An excerpt of these results, bar-delimited:
binder | measurement | setting | value
B1 | glycan array binding signal (z-score) | [7] | 1.96
same | glycan array binding signal (z-score) | [10] | -0.296
same | glycan array binding signal (z-score) | [28] | -0.893
same | glycan array binding signal (z-score) | [36] | 0.446
